From the supplement of paper PMC8866396
± gives the standard deviation of the averaged measurements. The list shows a part of the results. This data set is noisy: repeats of one test often differ as much as different tests do.

tested on: IL-6-GFP PC-9; assay: IL-6-GFP fluorescence relative to DMSO control (fraction of control); higher = more IL-6-GFP expression; settings: compound concentration: 10 uM; treatment time: 48 h
Description: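 IL-6-GFP-overexpressing PC-9 and PC-9GR EGFR-mutant lung cancer cells (3000 cells/well, 96-well) were treated for 48 h with each compound of the Selleck L2000 library at 10 uM. IL-6-GFP fluorescence was read on a high-content screening system, and viability by CCK-8 absorbance on a parallel plate set. Each value was normalised as compound well / DMSO control well; two independent replicates.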

Row | SMILES | IL-6-GFP fluorescence
1 | CC1CCC2N(C1)CC1C3CC4C(CC(O)C5CC(O)CCC54C)C3CCC1C2(C)O (configuration not stated) [Peimine] | 0.873 ± 0.028
2 | CC(C)C12OC1C1OC13C1(C)CCC4=C(COC4=O)C1CC1OC13C2=O (configuration not stated) [Triptonide] | 1.11 ± 0.14
3 | COC1=CC2C3Cc4ccc(OC)c(O)c4C2(CCN3C)CC1=O.Cl (configuration not stated) [Sinomenine hydrochloride] | 0.848 ± 0.052
4 | CC1CC(=O)CC2CCC3C4CCC(O)C4(C)CCC3C12C (configuration not stated) [Mesterolone] | 0.8333 ± 0.0049
5 | COc1cc2c(c(OC)c1OC)-c1ccc(OC)c(=O)cc1C(NC(C)=O)CC2 (configuration not stated) [Colchicine] | 0.87 ± 0.23
6 | C=CCN1CC(C(=O)N(CCCN(C)C)C(=O)NCC)CC2c3cccc4[nH]cc(c34)CC21 (configuration not stated) [Cabergoline] | 0.854 ± 0.05
7 | O.O=P1(N(CCCl)CCCl)NCCCO1 (configuration not stated) [Cyclophosphamide Monohydrate] | 0.944 ± 0.3
8 | O=C(O)C1C2CCC(O2)C1C(=O)[O][Na] (configuration not stated) [Sodium Demethylcantharidate] | 0.709 ± 0.058
9 | COc1cc(C2c3cc4c(cc3C(O)C3COC(=O)C23)OCO4)cc(OC)c1OC (configuration not stated) [Picropodophyllin (PPP)] | 0.909 ± 0.043
10 | CC(C)(C)NCC(O)c1ccccc1Cl.Cl (configuration not stated) [Tulobuterol hydrochloride] | 0.714 ± 0.038
11 | CC(C)[N+](C)(CCC(C(N)=O)(c1ccccc1)c1ccccc1)C(C)C.[I-] [Isopropamide Iodide] | 0.946 ± 0.079
12 | CCC1(O)C(=O)OCc2c1cc1n(c2=O)Cc2cc3ccccc3nc2-1 (configuration not stated) [Camptothecin] | 0.758 ± 0.099
13 | CC12CCC3c4ccc(OC(=O)N(CCCl)CCCl)cc4CCC3C1CCC2OP(=O)([O-])[O-].[Na+].[Na+] (configuration not stated) [Estramustine phosphate sodium] | 1.12 ± 0.4
14 | Cn1c(CCCC(=O)O)nc2cc(N(CCCl)CCCl)ccc21 [Bendamustine] | 0.823 ± 0.016
15 | Cc1c(N)nc(C(CC(N)=O)NCC(N)C(N)=O)nc1C(=O)NC(C(=O)NC(C)C(O)C(C)C(=O)NC(C(=O)NCCc1nc(-c2nc(C(=O)NCCC[S+](C)C)cs2)cs1)C(C)O)C(OC1OC(CO)C(O)C(O)C1OC1OC(CO)C(O)C(OC(N)=O)C1O)c1c[nH]cn1.O=S(=O)([O-])O (configuration not stated) [Bleomycin sulfate] | 1.01 ± 0.013
16 | COC1=CC2C3Cc4ccc(OC)c(O)c4C2(CCN3C)CC1=O (configuration not stated) [Sinomenine] | 0.799 ± 0.18

Row | SMILES | IL-6-GFP fluorescence
17 | CC(C)C12OC1C1OC13C1(C)CCC4=C(COC4=O)C1CC1OC13C2O (configuration not stated) [Triptolide (PG490)] | 1.11 ± 0.18
18 | COc1cc2c(cc1O)CC1c3c(cc(O)c(OC)c3-2)CCN1C (configuration not stated) [Boldine] | 0.86 ± 0.19
19 | O=c1c2ccccc2[se]n1-c1ccccc1 [Ebselen] | 0.8369 ± 0.0038
20 | CCC1(O)C(=O)OCc2c1cc1n(c2=O)Cc2c-1nc1ccccc1c2CCNC(C)C.Cl (configuration not stated) [Belotecan (CKD-602) hydrochloride] | 1.23 ± 0.12
21 | c1ccc2c(c1)Sc1ccccc1N2CC1CN2CCC1CC2 (configuration not stated) [Mequitazine] | 0.788 ± 0.013
22 | NC(Cc1ccc(N(CCCl)CCCl)cc1)C(=O)O (configuration not stated) [Melphalan] | 0.891 ± 0.038
23 | Cc1cccc(C(C)c2c[nH]cn2)c1C.Cl (configuration not stated) [Medetomidine HCl] | 0.798 ± 0.26
24 | Cn1cc(C2=C(c3cn(C4CCN(Cc5ccccn5)CC4)c4ccccc34)C(=O)NC2=O)c2ccccc21 | 0.878 ± 0.043
25 | COC(=O)CC(O)(CCC(C)(C)O)C(=O)OC1C(OC)=CC23CCCN2CCc2cc4c(cc2C13)OCO4 (configuration not stated) [Harringtonine] | 1.13 ± 0.19
26 | Cl.Cn1c(CCCC(=O)O)nc2cc(N(CCCl)CCCl)ccc21 [Bendamustine HCl] | 0.931 ± 0.19
27 | O=C(O)c1nn(Cc2ccc(Cl)cc2Cl)c2ccccc12 [Lonidamine] | 0.941 ± 0.28
28 | O=P1(NCCCl)OCCCN1CCCl (configuration not stated) [Ifosfamide] | 0.719 ± 0.26
29 | CN(C)NC(=O)CCC(=O)O [Daminozide] | 0.953 ± 0.12
30 | O=C(O)CCCc1ccc(N(CCCl)CCCl)cc1 [Chloroambucil] | 0.937 ± 0.05
31 | CCC1=CC2CN3CCc4c([nH]c5ccccc45)C(C(=O)OC)(C2)C13 (configuration not stated) [Catharanthine] | 1.15 ± 0.39
32 | CC12CCC3C(CCC4=C(O)C(=O)CCC43C)C1CCC2=O (configuration not stated) [Formestane] | 0.893 ± 0.27

An excerpt of these results, as comma-separated lines.
Row,SMILES,IL-6-GFP fluorescence
17,CC(C)C12OC1C1OC13C1(C)CCC4=C(COC4=O)C1CC1OC13C2O (configuration not stated) [Triptolide (PG490)],1.11 ± 0.18
20,CCC1(O)C(=O)OCc2c1cc1n(c2=O)Cc2c-1nc1ccccc1c2CCNC(C)C.Cl (configuration not stated) [Belotecan (CKD-602) hydrochloride],1.23 ± 0.12
21,c1ccc2c(c1)Sc1ccccc1N2CC1CN2CCC1CC2 (configuration not stated) [Mequitazine],0.788 ± 0.013
25,COC(=O)CC(O)(CCC(C)(C)O)C(=O)OC1C(OC)=CC23CCCN2CCc2cc4c(cc2C13)OCO4 (configuration not stated) [Harringtonine],1.13 ± 0.19
26,Cl.Cn1c(CCCC(=O)O)nc2cc(N(CCCl)CCCl)ccc21 [Bendamustine HCl],0.931 ± 0.19
31,CCC1=CC2CN3CCc4c([nH]c5ccccc45)C(C(=O)OC)(C2)C13 (configuration not stated) [Catharanthine],1.15 ± 0.39
